Data taken from the supplement of paper PMC11732987, “Enantioselective OTUD7B fragment discovery through chemoproteomics screening and high-throughput optimisation” (Communications Chemistry, 2025).
The list shows a part of the results. The data scatter; read single values as rough.

Chains of the proteins cited; added tags and fusions are not shown. Lines headed by an entry give the natural chain unless they say otherwise; changes in a name come on top.
UniProt Q09472: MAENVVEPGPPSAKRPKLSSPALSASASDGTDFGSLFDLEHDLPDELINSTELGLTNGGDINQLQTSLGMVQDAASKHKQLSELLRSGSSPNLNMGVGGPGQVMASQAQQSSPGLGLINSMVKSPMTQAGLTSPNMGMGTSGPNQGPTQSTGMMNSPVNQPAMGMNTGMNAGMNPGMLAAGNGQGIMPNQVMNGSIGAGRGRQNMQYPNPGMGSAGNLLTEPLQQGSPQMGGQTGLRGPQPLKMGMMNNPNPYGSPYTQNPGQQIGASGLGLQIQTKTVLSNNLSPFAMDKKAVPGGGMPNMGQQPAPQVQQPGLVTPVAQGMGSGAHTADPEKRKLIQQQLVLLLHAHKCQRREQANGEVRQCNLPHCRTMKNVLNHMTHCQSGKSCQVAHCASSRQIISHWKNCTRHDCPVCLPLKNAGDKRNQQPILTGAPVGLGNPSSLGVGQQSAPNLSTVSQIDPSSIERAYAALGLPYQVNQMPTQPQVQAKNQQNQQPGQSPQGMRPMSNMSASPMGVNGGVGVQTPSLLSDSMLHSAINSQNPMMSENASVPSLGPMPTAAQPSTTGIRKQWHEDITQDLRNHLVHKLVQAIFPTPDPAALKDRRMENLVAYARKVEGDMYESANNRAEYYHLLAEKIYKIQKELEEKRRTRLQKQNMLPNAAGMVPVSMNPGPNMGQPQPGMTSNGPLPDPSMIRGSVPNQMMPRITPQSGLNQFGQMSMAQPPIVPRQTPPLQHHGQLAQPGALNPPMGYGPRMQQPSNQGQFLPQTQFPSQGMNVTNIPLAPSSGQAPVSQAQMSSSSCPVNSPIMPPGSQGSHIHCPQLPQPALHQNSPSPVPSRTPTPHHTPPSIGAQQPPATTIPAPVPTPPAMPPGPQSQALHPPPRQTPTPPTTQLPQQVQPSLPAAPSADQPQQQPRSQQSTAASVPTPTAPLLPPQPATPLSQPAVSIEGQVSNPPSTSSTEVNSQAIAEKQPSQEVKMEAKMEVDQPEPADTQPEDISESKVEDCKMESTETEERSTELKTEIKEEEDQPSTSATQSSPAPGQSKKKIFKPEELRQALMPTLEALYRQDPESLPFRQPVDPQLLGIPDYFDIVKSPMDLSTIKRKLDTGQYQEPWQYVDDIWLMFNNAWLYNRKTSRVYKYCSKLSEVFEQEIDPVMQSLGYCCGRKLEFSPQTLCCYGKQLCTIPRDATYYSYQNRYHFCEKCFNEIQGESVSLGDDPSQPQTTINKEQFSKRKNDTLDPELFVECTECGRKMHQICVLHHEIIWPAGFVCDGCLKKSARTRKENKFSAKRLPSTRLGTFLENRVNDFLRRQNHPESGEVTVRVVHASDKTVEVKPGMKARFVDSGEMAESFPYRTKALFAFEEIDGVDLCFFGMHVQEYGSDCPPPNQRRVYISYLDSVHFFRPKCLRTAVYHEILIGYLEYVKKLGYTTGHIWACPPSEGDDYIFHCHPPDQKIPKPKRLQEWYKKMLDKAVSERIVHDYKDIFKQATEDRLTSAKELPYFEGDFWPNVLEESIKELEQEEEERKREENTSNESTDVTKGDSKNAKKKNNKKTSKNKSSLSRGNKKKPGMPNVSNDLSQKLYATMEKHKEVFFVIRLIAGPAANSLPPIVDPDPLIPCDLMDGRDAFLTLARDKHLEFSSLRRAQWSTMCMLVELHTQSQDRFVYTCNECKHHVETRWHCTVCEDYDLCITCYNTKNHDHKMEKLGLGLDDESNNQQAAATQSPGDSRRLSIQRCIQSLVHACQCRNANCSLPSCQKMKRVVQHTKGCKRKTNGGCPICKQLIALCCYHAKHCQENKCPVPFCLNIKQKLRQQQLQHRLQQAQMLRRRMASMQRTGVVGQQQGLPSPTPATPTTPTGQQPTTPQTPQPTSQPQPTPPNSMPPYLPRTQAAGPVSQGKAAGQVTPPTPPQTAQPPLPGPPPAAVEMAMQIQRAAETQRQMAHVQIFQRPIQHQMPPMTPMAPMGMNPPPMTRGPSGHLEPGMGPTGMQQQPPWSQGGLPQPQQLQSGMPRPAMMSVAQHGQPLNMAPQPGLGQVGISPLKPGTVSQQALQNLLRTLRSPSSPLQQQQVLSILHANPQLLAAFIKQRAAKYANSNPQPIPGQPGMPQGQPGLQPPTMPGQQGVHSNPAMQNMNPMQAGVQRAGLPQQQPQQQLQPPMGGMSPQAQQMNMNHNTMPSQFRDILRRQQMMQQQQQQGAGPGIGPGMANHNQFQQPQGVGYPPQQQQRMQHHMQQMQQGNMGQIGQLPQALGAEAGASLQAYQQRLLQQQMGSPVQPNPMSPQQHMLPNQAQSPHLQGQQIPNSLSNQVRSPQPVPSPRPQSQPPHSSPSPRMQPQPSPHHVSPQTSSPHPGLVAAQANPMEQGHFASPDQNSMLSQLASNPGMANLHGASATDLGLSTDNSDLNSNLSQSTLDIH

biological target: T1, EP300 C1204 (UniProt Q09472); test: log2 mean competition ratio of IA-DTB cysteine labelling (DMSO/compound) (log2 ratio); higher = stronger cysteine engagement by compound; details: 50 µM; treatment time: 4 h; cell line lysate: HEK293T
T1 sequence (whole entry): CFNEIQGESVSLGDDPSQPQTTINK
Protocol: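 IA-DTB competitive cysteine chemoproteomics in HEK293T RIPA lysate. Lysates were treated with compound 29 or 30 at 50 or 200 µM for 4 h, then IA-DTB (500 µM, 1 h), trypsin-digested, NeutrAvidin-enriched and analysed by diaPASEF. Competition ratio = intensity DMSO / intensity compound (n=4 treated, n=64 DMSO); binding: mean log2 CR ≥ 1 and p ≤ 0.05 plus QC filters. Target is the cysteine site.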

For `O=C(CCl)N[C@H]1CCCc2ccccc21`, which “log2 mean competition ratio” value is on record?
The value was -0.253.

`O=C(CCl)N[C@@H]1CCCc2ccccc21` was tested. Which “log2 mean competition ratio” value did it give?
Its value is -0.329.

same assay, conditions: 200 µM; treatment time: 4 h; cell line lysate: HEK293T

`O=C(CCl)N[C@H]1CCCc2ccccc21` was tested. Which “log2 mean competition ratio” value did it give?
The value was 0.126.

With `O=C(CCl)N[C@@H]1CCCc2ccccc21` as the compound, how does the “log2 mean competition ratio” value read?
The value was -0.38.
